# Data: article doi:10.1101/2020.11.04.367136 (bioRxiv, 2020)
# The chains behind the UniProt entries cited, without tags or fusion partners. Residues count along the entry.
# UniProt P12954, residues 1-898: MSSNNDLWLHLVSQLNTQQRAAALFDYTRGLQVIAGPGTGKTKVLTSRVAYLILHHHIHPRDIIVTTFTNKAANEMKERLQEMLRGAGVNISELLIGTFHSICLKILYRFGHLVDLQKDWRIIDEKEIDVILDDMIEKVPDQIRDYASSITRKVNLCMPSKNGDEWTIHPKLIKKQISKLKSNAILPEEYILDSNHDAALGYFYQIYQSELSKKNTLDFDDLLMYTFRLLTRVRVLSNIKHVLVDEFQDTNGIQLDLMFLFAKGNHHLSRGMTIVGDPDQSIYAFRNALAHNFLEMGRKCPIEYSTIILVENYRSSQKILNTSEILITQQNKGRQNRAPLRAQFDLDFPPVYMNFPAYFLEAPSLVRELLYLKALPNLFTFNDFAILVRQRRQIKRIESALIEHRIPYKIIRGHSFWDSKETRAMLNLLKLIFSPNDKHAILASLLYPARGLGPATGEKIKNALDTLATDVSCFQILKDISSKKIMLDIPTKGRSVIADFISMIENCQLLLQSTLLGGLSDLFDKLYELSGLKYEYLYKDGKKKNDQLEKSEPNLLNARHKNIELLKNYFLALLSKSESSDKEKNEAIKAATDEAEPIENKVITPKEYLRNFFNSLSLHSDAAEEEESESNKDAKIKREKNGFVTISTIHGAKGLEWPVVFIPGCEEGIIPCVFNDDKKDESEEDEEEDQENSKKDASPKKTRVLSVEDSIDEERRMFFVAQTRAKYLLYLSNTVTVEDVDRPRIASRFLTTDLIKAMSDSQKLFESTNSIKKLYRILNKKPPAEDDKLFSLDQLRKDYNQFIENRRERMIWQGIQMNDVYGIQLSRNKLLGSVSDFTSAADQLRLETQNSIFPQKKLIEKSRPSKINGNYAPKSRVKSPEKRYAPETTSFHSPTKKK
# No constants are given. Whether binding was seen depends on the method and setting. Some binding calls cover weakened binding; strength is not graded here. Tags and fused reporters may be left off the sequences shown.
# T1: GFP–Rad55–Rad57 complex (His6–GFP–Rad55 and FLAG–Rad57) (S. cerevisiae) (UniProt P38953+P25301)
# T1 sequence 1: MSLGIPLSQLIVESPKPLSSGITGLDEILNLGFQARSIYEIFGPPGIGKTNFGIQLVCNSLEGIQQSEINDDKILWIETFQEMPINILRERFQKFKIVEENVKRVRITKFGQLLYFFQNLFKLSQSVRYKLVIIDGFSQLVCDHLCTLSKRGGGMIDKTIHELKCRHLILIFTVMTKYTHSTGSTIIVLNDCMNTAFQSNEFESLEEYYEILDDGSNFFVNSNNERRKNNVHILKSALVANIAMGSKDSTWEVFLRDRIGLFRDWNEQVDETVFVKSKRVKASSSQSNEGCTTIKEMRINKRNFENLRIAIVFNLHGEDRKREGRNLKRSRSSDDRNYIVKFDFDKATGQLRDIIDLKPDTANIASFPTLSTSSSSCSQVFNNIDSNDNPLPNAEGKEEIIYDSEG
# T1 sequence 2: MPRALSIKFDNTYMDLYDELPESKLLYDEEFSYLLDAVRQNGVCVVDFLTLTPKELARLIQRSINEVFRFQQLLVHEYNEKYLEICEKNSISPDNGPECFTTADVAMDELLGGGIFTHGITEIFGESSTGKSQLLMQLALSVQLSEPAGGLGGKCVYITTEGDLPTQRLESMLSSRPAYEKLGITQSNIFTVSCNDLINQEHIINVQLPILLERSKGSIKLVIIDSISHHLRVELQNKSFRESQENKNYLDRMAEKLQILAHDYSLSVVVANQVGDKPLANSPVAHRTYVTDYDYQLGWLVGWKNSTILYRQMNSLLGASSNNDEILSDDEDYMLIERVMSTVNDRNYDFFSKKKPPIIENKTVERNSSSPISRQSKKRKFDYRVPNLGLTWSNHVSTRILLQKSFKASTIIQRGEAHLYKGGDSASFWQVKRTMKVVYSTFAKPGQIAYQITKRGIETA
# T2: His6–GFP–Rad55 (S. cerevisiae) (UniProt P38953)
# T2 sequence: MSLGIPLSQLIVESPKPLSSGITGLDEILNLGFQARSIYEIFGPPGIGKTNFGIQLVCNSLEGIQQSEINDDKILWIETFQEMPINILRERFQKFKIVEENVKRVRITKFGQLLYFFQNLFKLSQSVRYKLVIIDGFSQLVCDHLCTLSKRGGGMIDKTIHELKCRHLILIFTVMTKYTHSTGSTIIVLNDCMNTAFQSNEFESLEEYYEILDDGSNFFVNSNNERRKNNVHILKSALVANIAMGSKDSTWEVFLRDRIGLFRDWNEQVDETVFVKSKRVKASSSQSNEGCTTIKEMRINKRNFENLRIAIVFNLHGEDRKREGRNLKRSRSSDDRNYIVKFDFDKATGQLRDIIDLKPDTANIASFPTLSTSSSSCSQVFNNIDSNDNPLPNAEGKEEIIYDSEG
# T3: Dmc1 (S. cerevisiae) (UniProt P25453)
# T3 sequence: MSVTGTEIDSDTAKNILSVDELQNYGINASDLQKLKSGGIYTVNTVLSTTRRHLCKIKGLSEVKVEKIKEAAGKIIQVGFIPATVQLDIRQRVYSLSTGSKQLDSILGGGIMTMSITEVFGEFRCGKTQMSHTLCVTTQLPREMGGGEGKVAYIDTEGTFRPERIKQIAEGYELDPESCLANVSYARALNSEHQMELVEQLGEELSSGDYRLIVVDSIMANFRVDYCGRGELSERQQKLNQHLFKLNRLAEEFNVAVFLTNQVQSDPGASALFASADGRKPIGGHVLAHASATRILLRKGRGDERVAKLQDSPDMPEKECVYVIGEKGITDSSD
# T4: Rad51 (S. cerevisiae, UniProt P25454 1-400)
# T4 sequence (looked up): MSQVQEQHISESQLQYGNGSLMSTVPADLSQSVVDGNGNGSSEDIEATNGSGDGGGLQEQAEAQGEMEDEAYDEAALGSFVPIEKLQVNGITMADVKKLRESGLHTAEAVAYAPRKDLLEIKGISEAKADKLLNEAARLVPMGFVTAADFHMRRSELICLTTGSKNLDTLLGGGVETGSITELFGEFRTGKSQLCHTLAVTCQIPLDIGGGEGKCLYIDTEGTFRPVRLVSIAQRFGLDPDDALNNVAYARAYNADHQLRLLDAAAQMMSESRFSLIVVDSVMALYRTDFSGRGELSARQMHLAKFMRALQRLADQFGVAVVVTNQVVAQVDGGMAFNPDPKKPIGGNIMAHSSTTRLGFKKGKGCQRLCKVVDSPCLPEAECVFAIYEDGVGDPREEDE
# Columns and labels:
# [1] = biological target: T1, GFP–Rad55–Rad57 complex (His6–GFP–Rad55 and FLAG–Rad57) (S. cerevisiae); assay: pull-down
# [2] = biological target: T2, His6–GFP–Rad55 (S. cerevisiae); assay: co-purification
# Dmc1 (S. cerevisiae) = biological target: T3, Dmc1 (S. cerevisiae); assay: single-molecule ssDNA curtain assay
# Rad51 = biological target: T4, Rad51; assay: single-molecule ssDNA curtain assay
molecule,measurement,setting,value
GFP–Srs2(1–898) (from UniProt P12954 1-898) (domain or fragment),binding,[1],binds
"FLAG–Rad57 (protein, UniProt P25301 1-460) MPRALSIKFDNTYMDLYDELPESKLLYDEEFSYLLDAVRQNGVCVVDFLTLTPKELARLIQRSINEVFRFQQLLVHEYNEKYLEICEKNSISPDNGPECFTTADVAMDELLGGGIFTHGITEIFGESSTGKSQLLMQLALSVQLSEPAGGLGGKCVYITTEGDLPTQRLESMLSSRPAYEKLGITQSNIFTVSCNDLINQEHIINVQLPILLERSKGSIKLVIIDSISHHLRVELQNKSFRESQENKNYLDRMAEKLQILAHDYSLSVVVANQVGDKPLANSPVAHRTYVTDYDYQLGWLVGWKNSTILYRQMNSLLGASSNNDEILSDDEDYMLIERVMSTVNDRNYDFFSKKKPPIIENKTVERNSSSPISRQSKKRKFDYRVPNLGLTWSNHVSTRILLQKSFKASTIIQRGEAHLYKGGDSASFWQVKRTMKVVYSTFAKPGQIAYQITKRGIETA",binding,[2],binds
"GFP–Rad55–Rad57 complex (His6–GFP–Rad55 and FLAG–Rad57) (complex, UniProt P38953 1-406; P25301 1-460) chain 1: MSLGIPLSQLIVESPKPLSSGITGLDEILNLGFQARSIYEIFGPPGIGKTNFGIQLVCNSLEGIQQSEINDDKILWIETFQEMPINILRERFQKFKIVEENVKRVRITKFGQLLYFFQNLFKLSQSVRYKLVIIDGFSQLVCDHLCTLSKRGGGMIDKTIHELKCRHLILIFTVMTKYTHSTGSTIIVLNDCMNTAFQSNEFESLEEYYEILDDGSNFFVNSNNERRKNNVHILKSALVANIAMGSKDSTWEVFLRDRIGLFRDWNEQVDETVFVKSKRVKASSSQSNEGCTTIKEMRINKRNFENLRIAIVFNLHGEDRKREGRNLKRSRSSDDRNYIVKFDFDKATGQLRDIIDLKPDTANIASFPTLSTSSSSCSQVFNNIDSNDNPLPNAEGKEEIIYDSEG chain 2: MPRALSIKFDNTYMDLYDELPESKLLYDEEFSYLLDAVRQNGVCVVDFLTLTPKELARLIQRSINEVFRFQQLLVHEYNEKYLEICEKNSISPDNGPECFTTADVAMDELLGGGIFTHGITEIFGESSTGKSQLLMQLALSVQLSEPAGGLGGKCVYITTEGDLPTQRLESMLSSRPAYEKLGITQSNIFTVSCNDLINQEHIINVQLPILLERSKGSIKLVIIDSISHHLRVELQNKSFRESQENKNYLDRMAEKLQILAHDYSLSVVVANQVGDKPLANSPVAHRTYVTDYDYQLGWLVGWKNSTILYRQMNSLLGASSNNDEILSDDEDYMLIERVMSTVNDRNYDFFSKKKPPIIENKTVERNSSSPISRQSKKRKFDYRVPNLGLTWSNHVSTRILLQKSFKASTIIQRGEAHLYKGGDSASFWQVKRTMKVVYSTFAKPGQIAYQITKRGIETA",binding,Dmc1 (S. cerevisiae),no binding (tested: 60 nM)
same,binding,Rad51,binds
